Source: PubChem BioAssay AID300 (DTP/NCI, 2004)
The list shows only some results of the screen, not a fair sample: its compounds were picked by chemical class. Not every dose and run of a compound is shown. T/C: endpoint of the treated group in % of that of the vehicle group. Where survival is the endpoint, this PubChem deposit counts one and a half times the control or more as active, and values a quarter to a half above the control carry no call in these data; other NCI protocols may use other cut-offs. Schedules are NCI's codes, taken here to give the interval after Q, in days (D) or hours (H), and the number of doses after X. Some entries show no survivor count and are marked so; the dose need not have been tolerated.

Test system: Madison 109 lung carcinoma i.m., mice, median survival
Test: NCI In Vivo Anticancer Drug Screen. Data for tumor model Madison 109 Lung Carcinoma (intramuscular) in unknown mice
Details: T/C endpoint: median survival time, schedule: Q01DX001 (ip), higher T/C = longer survival
Procedure: The antitumor activity of compounds was measured in mice bearing transplantable tumors. Survival or tumor size were measured and the results are expressed as the measurement made in the treated group (T) divided by the measurement made in the vehicle treated control group (C). The tumor model used in this assay is Madison 109 Lung Carcinoma (intramuscular) in unknown mice

Row | Structure (SMILES) | T/C (dose: 125.0 mg/kg/injection, vehicle: saline) | T/C (dose: 250.0 mg/kg/injection, vehicle: saline) | T/C (dose: 500.0 mg/kg/injection, vehicle: saline) | T/C (dose: 100.0 mg/kg/injection, vehicle: Klucel (hydroxypropylcellulose) (HPC)) | T/C (dose: 200.0 mg/kg/injection, vehicle: Klucel (hydroxypropylcellulose) (HPC)) | T/C (dose: 400.0 mg/kg/injection, vehicle: Klucel (hydroxypropylcellulose) (HPC)) | T/C (dose: 800.0 mg/kg/injection, vehicle: Klucel (hydroxypropylcellulose) (HPC))
1 | CNc1ccccc1.O=[N+]([O-])c1cc([N+](=O)[O-])c(O)c([N+](=O)[O-])c1 | 115 % of control [survivor count not shown] | 115 % of control [survivor count not shown] | 110 % of control [survivor count not shown] |  |  |  | 
2 | NC(=O)c1[nH]cnc1/N=N\N(CCCl)CCCl |  |  |  | 112 % of control | 113 % of control | 105 % of control | 101 % of control
